# System: DIV7 neurons
# Test: Metabolic flux experiment with U-13C-fructose in DIV7 neurons
# Type: cell-based
# Conditions: after OGD treatment, compared with the control group
smiles,measurement,value
O=[13C]([13CH2]O)[13C@@H](O)[13C@H](O)[13C@H](O)[13CH2]O [U-13C-fructose],13C labeling rate in PPP pathway metabolites ribose-5-phosphate and erythrose-4 phosphate,increases
same,13C labeling rate in TCA pathway metabolites oxaloacetic acid and citric acid,increases
